Binding data for 1 substance are collected here from paper PMC5682278.

This test deals with VACV D4 (uracil-DNA glycosylase), His-tagged (vaccinia virus (VACV)) (UniProt P20536). In words: co-purification (nickel column, gel filtration).

Results are given in words; binding and its absence hold for the method and conditions named. Some results given as binding are weak or reduced against the parent protein; the word gives no strength.

With “VACV A20, full length, wild type (from UniProt P20995 1-426)”, the binding result is reported as “binds”.
